Experimental findings from article PMC13059805 are described below.

Sequences of proteins named here, by UniProt entry; tags and fusion partners are left off.
UniProt Q2G184: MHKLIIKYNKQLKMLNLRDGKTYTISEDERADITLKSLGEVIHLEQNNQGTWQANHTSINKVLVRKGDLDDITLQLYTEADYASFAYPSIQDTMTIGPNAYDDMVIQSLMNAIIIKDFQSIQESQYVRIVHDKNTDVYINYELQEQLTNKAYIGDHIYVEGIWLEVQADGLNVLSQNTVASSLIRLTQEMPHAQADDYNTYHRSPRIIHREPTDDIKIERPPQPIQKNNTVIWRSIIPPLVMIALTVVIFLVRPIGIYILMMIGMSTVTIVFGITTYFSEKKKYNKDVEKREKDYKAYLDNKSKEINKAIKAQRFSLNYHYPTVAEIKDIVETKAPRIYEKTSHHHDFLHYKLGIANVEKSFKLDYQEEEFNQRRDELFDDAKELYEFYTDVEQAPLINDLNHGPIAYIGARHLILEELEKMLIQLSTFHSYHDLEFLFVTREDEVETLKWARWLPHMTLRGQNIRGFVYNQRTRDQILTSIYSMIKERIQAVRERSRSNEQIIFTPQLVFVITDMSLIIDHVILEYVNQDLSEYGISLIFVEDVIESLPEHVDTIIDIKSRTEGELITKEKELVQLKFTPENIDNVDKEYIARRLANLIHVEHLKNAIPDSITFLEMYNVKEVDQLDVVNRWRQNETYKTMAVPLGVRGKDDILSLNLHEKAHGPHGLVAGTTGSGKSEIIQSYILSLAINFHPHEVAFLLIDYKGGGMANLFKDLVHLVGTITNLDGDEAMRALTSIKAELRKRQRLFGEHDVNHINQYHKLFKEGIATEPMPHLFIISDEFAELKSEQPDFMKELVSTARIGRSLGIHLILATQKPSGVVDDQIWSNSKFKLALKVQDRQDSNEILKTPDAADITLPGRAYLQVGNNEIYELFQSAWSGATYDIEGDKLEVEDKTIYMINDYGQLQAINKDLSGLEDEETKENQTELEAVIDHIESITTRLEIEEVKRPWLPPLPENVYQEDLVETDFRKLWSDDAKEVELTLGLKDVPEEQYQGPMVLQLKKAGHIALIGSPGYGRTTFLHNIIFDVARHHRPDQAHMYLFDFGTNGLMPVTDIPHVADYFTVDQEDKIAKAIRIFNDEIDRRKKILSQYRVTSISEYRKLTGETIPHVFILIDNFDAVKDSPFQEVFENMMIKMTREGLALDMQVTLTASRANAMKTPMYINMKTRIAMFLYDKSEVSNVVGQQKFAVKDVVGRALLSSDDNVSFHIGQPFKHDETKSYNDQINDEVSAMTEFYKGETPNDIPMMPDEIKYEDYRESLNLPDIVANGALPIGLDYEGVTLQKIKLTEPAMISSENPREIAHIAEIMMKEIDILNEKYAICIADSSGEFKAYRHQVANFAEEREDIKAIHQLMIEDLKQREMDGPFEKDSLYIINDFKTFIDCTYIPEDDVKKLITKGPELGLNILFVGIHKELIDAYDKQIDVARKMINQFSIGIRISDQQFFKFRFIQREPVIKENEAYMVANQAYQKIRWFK
UniProt Q2G188: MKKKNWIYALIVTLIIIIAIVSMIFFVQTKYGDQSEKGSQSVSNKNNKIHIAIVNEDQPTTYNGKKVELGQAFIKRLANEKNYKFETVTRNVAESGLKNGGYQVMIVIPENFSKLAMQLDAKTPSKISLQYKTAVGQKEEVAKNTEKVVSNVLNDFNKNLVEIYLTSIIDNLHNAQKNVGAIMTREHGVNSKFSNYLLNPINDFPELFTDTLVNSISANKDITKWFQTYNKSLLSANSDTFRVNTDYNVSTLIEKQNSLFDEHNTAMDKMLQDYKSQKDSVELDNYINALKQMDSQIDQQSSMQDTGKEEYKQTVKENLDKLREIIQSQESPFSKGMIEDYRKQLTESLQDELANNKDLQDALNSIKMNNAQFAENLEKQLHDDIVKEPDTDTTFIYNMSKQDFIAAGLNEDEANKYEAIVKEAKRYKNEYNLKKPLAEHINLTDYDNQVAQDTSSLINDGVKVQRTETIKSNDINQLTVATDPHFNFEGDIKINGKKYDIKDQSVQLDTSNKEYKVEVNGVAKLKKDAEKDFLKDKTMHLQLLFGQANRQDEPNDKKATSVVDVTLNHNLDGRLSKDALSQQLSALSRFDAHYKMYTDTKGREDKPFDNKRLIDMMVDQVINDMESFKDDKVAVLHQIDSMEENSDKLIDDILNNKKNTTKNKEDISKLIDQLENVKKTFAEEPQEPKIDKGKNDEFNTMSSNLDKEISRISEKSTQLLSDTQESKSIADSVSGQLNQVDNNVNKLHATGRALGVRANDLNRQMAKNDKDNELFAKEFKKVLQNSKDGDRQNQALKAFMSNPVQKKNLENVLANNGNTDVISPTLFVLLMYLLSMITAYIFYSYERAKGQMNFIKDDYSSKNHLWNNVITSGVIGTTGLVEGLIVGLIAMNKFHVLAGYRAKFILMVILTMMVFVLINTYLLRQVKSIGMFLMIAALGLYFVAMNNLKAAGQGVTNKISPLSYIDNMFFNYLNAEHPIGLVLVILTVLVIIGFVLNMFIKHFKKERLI
UniProt Q2G185: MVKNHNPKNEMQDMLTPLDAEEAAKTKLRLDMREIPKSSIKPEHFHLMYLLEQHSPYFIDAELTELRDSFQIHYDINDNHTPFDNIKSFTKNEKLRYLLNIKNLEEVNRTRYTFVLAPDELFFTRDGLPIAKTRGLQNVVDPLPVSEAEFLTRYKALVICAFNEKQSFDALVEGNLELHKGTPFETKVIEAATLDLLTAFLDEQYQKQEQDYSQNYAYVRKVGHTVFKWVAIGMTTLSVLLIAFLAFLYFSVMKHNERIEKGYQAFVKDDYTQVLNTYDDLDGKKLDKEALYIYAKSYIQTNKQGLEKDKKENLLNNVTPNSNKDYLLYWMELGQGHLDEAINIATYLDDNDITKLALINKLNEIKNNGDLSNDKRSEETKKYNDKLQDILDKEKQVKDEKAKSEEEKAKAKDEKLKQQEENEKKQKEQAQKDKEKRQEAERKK
UniProt Q2G189: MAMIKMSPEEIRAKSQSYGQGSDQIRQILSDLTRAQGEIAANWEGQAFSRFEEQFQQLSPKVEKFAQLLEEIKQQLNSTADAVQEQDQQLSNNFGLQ

Results are given in words; binding and its absence hold for the method and conditions named. In cells and extracts the contact can be indirect. Some results given as binding are weak or reduced against the parent protein; the word gives no strength.

The target in this assay is EssC with a C-terminal Twin-Strep tag (S. aureus USA300 LAC*) (UniProt Q2G184). Description: pull-down; EssCTS held on Strep-Tactin Sepharose from 0.25% DDM extracts of S. aureus membranes (wild type, ∆essH and ∆esaA hosts, T7 permissive culture); 4°C, Buffer A (20 mM Tris pH 8, 300 mM NaCl, 10% glycerol), wash with amphipol A8-35, elution with 5 mM desthiobiotin; eluates immunoblotted; untagged EssC as control.
Regarding EsaA (from UniProt Q2G188 1-1009), the binding entry is given as “binds”. EssB (from UniProt Q2G185 1-444): the binding result was “binds”. Under EsxA (from UniProt Q2G189 1-97) stands “binds”.
